Three molecules from PMC11211476 can be followed below.

No constants are given. Whether binding was seen depends on the method and setting. In cells and extracts the contact can be indirect. Some results given as binding are weak or reduced against the parent protein; the word gives no strength. For some of these results: Tags and fused reporters may be left off the sequences shown.

The target of test [1] is T1, ovarian tumor deubiquitinase 5 (OTUD5), endogenous (mouse (endogenous in MPC5 cells and mouse kidney tissue)) (UniProt Q3U2S4).
T1 sequence: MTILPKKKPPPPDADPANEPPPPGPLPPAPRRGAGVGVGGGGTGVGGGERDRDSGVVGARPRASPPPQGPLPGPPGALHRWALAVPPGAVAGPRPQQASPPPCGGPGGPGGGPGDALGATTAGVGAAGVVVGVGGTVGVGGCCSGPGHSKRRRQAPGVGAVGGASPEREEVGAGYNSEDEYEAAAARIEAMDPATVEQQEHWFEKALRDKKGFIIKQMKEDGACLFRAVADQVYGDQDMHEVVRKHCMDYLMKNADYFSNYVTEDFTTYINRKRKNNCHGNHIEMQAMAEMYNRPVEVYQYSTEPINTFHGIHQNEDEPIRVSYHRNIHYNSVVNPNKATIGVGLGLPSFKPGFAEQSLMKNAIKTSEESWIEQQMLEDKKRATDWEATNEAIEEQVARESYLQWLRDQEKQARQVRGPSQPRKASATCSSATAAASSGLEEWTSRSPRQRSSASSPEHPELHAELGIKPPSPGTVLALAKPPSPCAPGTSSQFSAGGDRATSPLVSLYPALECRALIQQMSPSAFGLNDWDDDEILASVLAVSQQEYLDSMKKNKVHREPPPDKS
Kind of test: co-IP; mouse kidney tissue lysate; endogenous OTUD5 immunoprecipitated, control IgG; protein A + G agarose, 5 washes with PBS; western blot. On the technique in general: A western blot detects proteins with antibodies after separation by electrophoresis.

The target in test [2] is T1, ovarian tumor deubiquitinase 5 (OTUD5), endogenous (mouse (endogenous in MPC5 cells and mouse kidney tissue)). Kind of test: co-IP; MPC5 cell lysate; endogenous OTUD5 immunoprecipitated, control IgG; protein A + G agarose, 5 washes with PBS; western blot.
The target in another test is T2, Flag-OTUD5-WT (UniProt Q3U2S4).
T2 sequence: T1 sequence
Kind of test: co-IP; NIH/3T3 co-transfected with Flag-OTUD5 and His-TAK1 plasmids; exogenous OTUD5 immunoprecipitated with an anti-Flag antibody.

The next test has as its target T3, His-TAK1-WT (UniProt Q62073).
T3 sequence: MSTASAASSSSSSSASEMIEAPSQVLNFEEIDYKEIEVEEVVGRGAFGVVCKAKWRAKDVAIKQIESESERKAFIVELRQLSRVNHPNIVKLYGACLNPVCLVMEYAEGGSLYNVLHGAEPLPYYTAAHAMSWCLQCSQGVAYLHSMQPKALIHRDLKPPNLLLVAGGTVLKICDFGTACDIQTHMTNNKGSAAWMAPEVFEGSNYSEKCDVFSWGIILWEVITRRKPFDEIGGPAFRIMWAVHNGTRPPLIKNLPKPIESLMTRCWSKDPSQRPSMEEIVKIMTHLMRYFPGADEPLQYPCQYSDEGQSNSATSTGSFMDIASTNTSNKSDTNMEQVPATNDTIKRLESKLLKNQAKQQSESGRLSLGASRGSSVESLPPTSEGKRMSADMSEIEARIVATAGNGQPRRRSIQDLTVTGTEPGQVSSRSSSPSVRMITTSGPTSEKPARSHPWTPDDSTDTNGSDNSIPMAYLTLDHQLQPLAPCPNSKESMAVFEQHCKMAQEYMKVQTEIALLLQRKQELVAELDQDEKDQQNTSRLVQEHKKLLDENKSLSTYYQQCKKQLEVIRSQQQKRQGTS
Kind of test: co-IP; NIH/3T3 transfected with His-TAK1 (WT or K158R) with or without Flag-OTUD5 (WT or C224A); co-IP with an anti-His antibody, western blot of TAK1 and TAB2.

B1: TGF-β-activated kinase 1 (TAK1), endogenous (enzyme, UniProt Q62073 1-579)
chain: T3 sequence
For B1, the binding entry in test [1] and in test [2] was “binds” throughout.

B2: His-TAK1-WT (enzyme, UniProt Q62073 1-579)
chain: T3 sequence
As to B2, the binding entry in the test with Flag-OTUD5-WT was “binds”.

B3: TAB2, endogenous (protein, UniProt Q99K90 1-693)
chain: MAQGSHQIDFQVLHDLRQKFPEVPEVVVSRCMLQNNNNLDACCAVLSQESTRYLYGEGDLNFSDESGISGLRNHMTSLNLDLQSQNVYHHGREGSRVNGSRTLTHSVSDGQLHGGQSNNELFQQEPQTAPAQVPQGFNVFGMPSTSGASNSTPHLGFHLGSKGTSNLSQQTPRFNPIMVTLAPNIQTGRSTPTSLHIHGVPPPVLNSPQGNSIYIRPYITTPSGTARQTQQHSGWVSQFNPMNPQQAYQPSQPGPWTTYPASNPLPHTSTQQPNQQGHQTSHVYMPISSPTTPQPPTIHSSGSSQSSAHSQYNIQNISTGPRKNQIEIKLEPPQRNSSSKLRSSGPRTASTSSLVNSQTLNRNQPTVYIAASPPNTDEMISRSQPKVYISANATAGDEQGMRNQPTLFISTNSGPSAASRNMSGQVSMGPAFIHHHPPKSRVLGGNSATSPRVVVTQPNTKYTFKITVSPNKPPAVSPGVVSPTFELTNLLNHPDHYVETENIQHLTDPALAHVDRISEARKLSMGSDDAAYTQALLVHQKARMERLQRELEMQKKKLDKLKSEVNEMENNLTRRRLKRSNSISQIPSLEEMQQLRSCNRQLQIDIDCLTKEIDLFQARGPHFNPSAIHNFYDNIGFVGPVPPKPKDQRSTIKAPKTQDAEDEEGAQWNCTACTFLNHPALIRCEQCEMPRHF
For B3, in the test with His-TAK1-WT, the binding entry is given as “binds”.
